PubChem BioAssay AID602196 | INSERM, 2012
Aim: 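Knock-downs that protect lung cancer cells from cisplatin or sensitise them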. Cells: human A549 lung cancer cells. Reagents: siRNA pair against human genes. Timing: 48 h transfection before cisplatin; time from cisplatin to read-out not stated. Challenge: cisplatin at a dose killing half of control-siRNA cells; exact dose and duration not given. Read-out: 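Shift in cisplatin death relative to control siRNA, from -50 (all cells die) to +50 (no cells die); siRNAs harmful on their own scored 0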. Scale: two-siRNA summed score (-2 to +2): higher = both siRNAs protect from cisplatin killing; -2 means both sensitise; mean protection from cisplatin (shift in death) and protection from cisplatin (shift in death), siRNA C and protection from cisplatin (shift in death), siRNA D: higher = protection from cisplatin killing. Active means: 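Each siRNA scores 0 if harmful alone by LDH or WST-1, otherwise +1 if it reduces and -1 if it increases cisplatin killing; a gene is active when both siRNAs agree (sum +2 or -2)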. Meaning of the calls: active = both siRNAs shift cisplatin killing the same way; inactive = no consistent shift, or siRNA harmful alone.
Shown is an unselected part of about 23,000 reagents tested. 455 of all reagents (2%) count as active. 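Active includes both protection and sensitisation; some change values fall well beyond the stated -50 to +50 range.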 Unmarked entries are inactive. Not given: the amount of reagent.

| target | PubChem SID | two-siRNA summed score (-2 to +2) | mean protection from cisplatin (shift in death) (%) | protection from cisplatin (shift in death), siRNA C (%) | protection from cisplatin (shift in death), siRNA D (%) |
| --- | --- | --- | --- | --- | --- |
| CREM (cAMP responsive element modulator) | SID131500391 | -2 (active) | -15.6 | -12 | -19.1 |
| PNOC (prepronociceptin) | SID131505810 | 0 | -2.5 | -5.5 | 0.4 |
| LINC03042 (long independently transcribed non-coding RNA 3042) | SID131508474 | 0 | 1.1 | 8.3 | -6.1 |
| LTV1 (LTV1 ribosome biogenesis factor) | SID131520321 | 1 | 9.5 | 14.3 | 4.7 |
| SACM1L (SAC1 like phosphatidylinositide phosphatase) | SID131505999 | 0 | -2.2 | -6.9 | 2.5 |
| ADAM10 (ADAM metallopeptidase domain 10) | SID131505335 | 0 | -3.3 | -22.7 | 16 |
| MSR1 (macrophage scavenger receptor 1) | SID131503335 | 0 | -10.9 | -14.5 | -7.3 |
| CAND1 (cullin associated and neddylation dissociated 1) | SID131508866 | 0 | 1.6 | 4.7 | -1.5 |
| USP7 (ubiquitin specific peptidase 7) | SID131504619 | 0 | -4.9 | -6 | -3.8 |
| PGPEP1 (pyroglutamyl-peptidase I) | SID131516055 | 0 | 10.2 | 15.8 | 4.5 |
| OR10AD1 (olfactory receptor family 10 subfamily AD member 1) | SID131507238 | 0 | -0.4 | -10.2 | 9.4 |
| LOC283953 | SID131518337 | 0 | 18.5 | 26.7 | 10.2 |
| FSCN2 (fascin actin-bundling protein 2, retinal) | SID131504474 | 0 | -5.3 | -7.9 | -2.7 |
| PRICKLE4 (prickle planar cell polarity protein 4) | SID131513619 | 0 | 6.8 | 7.7 | 5.9 |
| CCNY (cyclin Y) | SID131514559 | 0 | 7.9 | 12.9 | 2.9 |
| MDGA1 (MAM domain containing glycosylphosphatidylinositol anchor 1) | SID131521594 | 1 | 14.1 | 15.8 | 12.4 |
| RETREG1 (reticulophagy regulator 1) | SID131515826 | 0 | 9.7 | 13.4 | 6.1 |
| KNDC1 (kinase non-catalytic C-lobe domain containing 1) | SID131515903 | 0 | 9.9 | 8.6 | 11.2 |
| PLPP1 (phospholipid phosphatase 1) | SID131505619 | 0 | -2.9 | 0.7 | -6.4 |
| LOC339003 | SID131514282 | 0 | 7.6 | 19.3 | -4 |
| NUCLEOLIN (nucleolin multifunctional protein) | SID131512359 | 0 | 5.4 | 10.1 | 0.7 |
| SCAI (suppressor of cancer cell invasion) | SID131516660 | 0 | 11.3 | 8.2 | 14.5 |
| SLC35B3 | SID131512193 | 0 | 5.2 | 8.7 | 1.7 |
| THBS4 (thrombospondin 4) | SID131512329 | 0 | 5.4 | -0.9 | 11.6 |
| CTSF (cathepsin F) | SID131500781 | -1 | -16.1 | -10.9 | -21.3 |
| EMC3 (ER membrane protein complex subunit 3) | SID131504995 | 0 | -4 | 11.6 | -19.7 |
| EIF1AX (eukaryotic translation initiation factor 1A X-linked) | SID131503729 | 0 | -8.2 | -14.2 | -2.1 |
| LOC441672 | SID131505325 | 0 | -3.3 | 2.3 | -9 |
| RPS27A (ribosomal protein S27a) | SID131517704 | 0 | 14.4 | 7.6 | 21.3 |
| ARRDC1 (arrestin domain containing 1) | SID131508922 | 0 | 1.6 | 15.9 | -12.7 |
| CCSER1 (coiled-coil serine rich protein 1) | SID131511637 | 0 | 4.6 | 5.1 | 4 |
| SPSB4 (splA/ryanodine receptor domain and SOCS box containing 4) | SID131510927 | 0 | 3.8 | 1 | 6.5 |
| SAMD1 (sterile alpha motif domain containing 1) | SID131507112 | 0 | -0.5 | -2.2 | 1.1 |
| CNRIP1 (cannabinoid receptor interacting protein 1) | SID131516471 | 0 | 10.9 | -0.6 | 22.4 |
| NRXN1 (neurexin 1) | SID131503049 | 0 | -14.7 | -5.7 | -23.7 |
| STAU1 (staufen double-stranded RNA binding protein 1) | SID131520183 | 1 | 9 | 1 | 17 |
| DEFB4A (defensin beta 4A) | SID131500572 | -1 | -21 | -7.2 | -34.9 |
| LOC283586 | SID131511301 | 0 | 4.2 | 5.5 | 2.9 |
| ANKRD44 (ankyrin repeat domain 44) | SID131502436 | -1 | -2.3 | -14.9 | 10.4 |
| LOC440751 | SID131520723 | 1 | 10.9 | 16.7 | 5.1 |
| TMEM125 (transmembrane protein 125) | SID131515614 | 0 | 9.4 | 10.2 | 8.7 |
| NOP58 (NOP58 ribonucleoprotein) | SID131503506 | 0 | -9.5 | -8.2 | -10.8 |
| SOX14 (SRY-box transcription factor 14) | SID131510002 | 0 | 2.8 | 7.7 | -2.2 |
| OR8H3 (olfactory receptor family 8 subfamily H member 3) | SID131513550 | 0 | 6.7 | 6.6 | 6.8 |
| LOC441151 | SID131521981 | 1 | 15.7 | 23.1 | 8.3 |
| LOC399978 | SID131506767 | 0 | -1 | 8.8 | -10.8 |
| ADGRG1 (adhesion G protein-coupled receptor G1) | SID131505332 | 0 | -3.3 | -9.9 | 3.3 |
| MYO1D (myosin ID) | SID131512718 | 0 | 5.8 | 14.7 | -3.1 |
| AKT1 (AKT serine/threonine kinase 1) | SID131503025 | 0 | -15.7 | -5.7 | -25.8 |
| TGM1 (transglutaminase 1) | SID131510969 | 0 | 3.8 | 7.5 | 0.2 |
| SIRT2 (sirtuin 2) | SID131502863 | 0 | -22 | -17.6 | -26.4 |
| VANGL2 (VANGL planar cell polarity protein 2) | SID131517475 | 0 | 13.5 | 23.6 | 3.4 |
| YY1AP1 (YY1 associated protein 1) | SID131521495 | 1 | 13.7 | 21.1 | 6.4 |
| EPHB4 (EPH receptor B4) | SID131500377 | -2 (active) | -16.8 | -10.6 | -23.1 |
| SNAPC2 (small nuclear RNA activating complex polypeptide 2) | SID131507781 | 0 | 0.3 | -4.9 | 5.4 |
| TWSG1 (twisted gastrulation BMP signaling modulator 1) | SID131514977 | 0 | 8.5 | 11.7 | 5.3 |
| COX8A (cytochrome c oxidase subunit 8A) | SID131517715 | 0 | 14.5 | 13.4 | 15.6 |
